Results as given in PubChem BioAssay AID493014 (National Center for Advancing Translational Sciences (NCATS), 2011).
This is one part of the list. Further columns of the screen follow, without active or inactive calls. The list favours compounds with an active or inconclusive main result. The note in brackets gives the kind of curve behind each potency; many fits are weak.

Experiment: qHTS Assay to Find Inhibitors of Chronic Active B-Cell Receptor Signaling
Settings: ABC-DLBCL IkBa-CBG/CBR reporter, luminescence ratio (green luciferase fused to IkBa over red control in TMD8 lymphoma cells), 4 h
Method in brief: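 TMD8 human ABC-DLBCL cells with doxycycline-inducible IκBα–green luciferase fusion and unfused red luciferase, in 0.5% FBS medium; compounds up to 46 uM, 4 h at 37C. Green/red luminescence ratio, filter-overlap corrected, fitted to concentration-response curves.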

[1] = measured here: CBR red luminescence, cell number
[2] = measured here: IkBa-CBG green luminescence

| Compound | AC50 [1] | AC50 [2] |
| --- | --- | --- |
| C=CCOc1ccc(CNn2cn[nH]c2=S)cc1OCC | 3.55 µM [falling, partial curve, poor fit] | – |
| c1ccc2c(N3CCCCC3)nc(N3CCCC3)nc2c1 | 18.4 µM [rising, single point] | – |
| O=c1oc2cc(OCCO)ccc2c2c1CCCC2 | 25.1 µM [rising, single point] | – |
| COc1ccc(S(=O)(=O)NCC(=O)N(CC(=O)NCC2CCCO2)c2ccccc2C)cc1 (stereo not drawn) | 7.31 µM [rising, partial curve, poor fit] | – |
| Cn1[nH]c(CSc2ccc(Cl)cc2)cc1=O | 15.8 µM [falling, partial curve, poor fit] | – |
| Cc1cccc2cc(COC(=O)COc3ccccc3)c(=O)[nH]c12 | 0.112 µM [falling, full curve, poor fit] | – |
| CC(=O)c1ccc(NC(=O)CCNS(=O)(=O)c2ccccc2F)cc1 | 12.6 µM [rising, partial curve, poor fit] | – |
| CC(=O)Oc1ccc(OC(C)=O)c(SCCCCCCl)c1 | 35.5 µM [falling, single point] | – |
| COCCNC(=O)c1cc(-c2ccccc2OC)on1 | 3.98 µM [falling, partial curve] | – |
| COC(=O)Cc1[nH]n(-c2nc3ccccc3s2)c(=O)c1C(C)=O | 16.4 µM [falling, partial curve, poor fit] | – |
| COc1ccc(C(CNC(=O)c2cccc(S(=O)(=O)Nc3ccc(C)cc3)c2)N2CCCCC2)cc1 (stereo not drawn) | 16.4 µM [falling, single point] | – |
| O=c1[nH]cccc1-c1nc2ccccc2[nH]1 | 1 µM [falling, full curve, poor fit] | – |
| O=C(CNC(=O)c1ccccc1Cl)c1ccccc1 | 25.1 µM [falling, single point] | – |
| CN1Cc2ccccc2N(CC(=O)NCc2ccccc2)C1=O | 35.5 µM [falling, single point] | – |
| O=C(NC1CCCCC1)c1c(O)nc2sccn2c1=O | 8.2 µM [falling, partial curve, poor fit] | – |
| CC1C/C(=C/c2ccncc2)C(=O)/C(=C/c2ccncc2)C1 (stereo not drawn) | 28.2 µM [falling, single point] | – |
| CCOc1ccc(C(=O)c2cc3ccc(O)cc3oc2=O)cc1 | 14.1 µM [falling, single point] | – |
| NCCCC(=O)N1c2ccccc2Sc2ccc(Cl)cc21 | 35.5 µM [falling, single point] | – |
| CCOC(=O)C1=CN(Cc2cccc(F)c2)S(=O)(=O)N(C)C1c1ccc(F)c(Cl)c1 (stereo not drawn) | 14.6 µM [falling, partial curve, poor fit] | – |
| O=C(N/N=C/c1cccs1)c1ccc2c(c1)OCO2 | 20.6 µM [falling, single point] | – |
| Cc1ccc(NC(=O)COC(=O)c2ccc3c(c2)NC(=O)C2CCCN32)cc1 (stereo not drawn) | 32.6 µM [falling, single point] | – |
| CCN(c1ccccc1)S(=O)(=O)c1ccc(N)c(OC)c1 | 0.0326 µM [falling, full curve, poor fit] | – |

Four structures already listed, ordered by length of the SMILES, largest number first.

| Compound | AC50 [1] | AC50 [2] |
| --- | --- | --- |
| CCOC(=O)C1=CN(Cc2cccc(F)c2)S(=O)(=O)N(C)C1c1ccc(F)c(Cl)c1 (stereo not drawn) | 14.6 µM [falling, partial curve, poor fit] | – |
| CN1Cc2ccccc2N(CC(=O)NCc2ccccc2)C1=O | 35.5 µM [falling, single point] | – |
| c1ccc2c(N3CCCCC3)nc(N3CCCC3)nc2c1 | 18.4 µM [rising, single point] | – |
| COCCNC(=O)c1cc(-c2ccccc2OC)on1 | 3.98 µM [falling, partial curve] | – |

Additional structures:

| Compound | AC50 [1] | AC50 [2] |
| --- | --- | --- |
| COc1cc(-c2noc(C)c2-c2ccc3[nH]ccc3c2)cc(OC)c1OC | 11.2 µM [rising, partial curve] | 7.08 µM [falling, partial curve] |
| O=C1CCNc2ccc(-c3ccccc3)cc21 | 6.51 µM [rising, single point] | – |
| COc1ccc2[nH]c(O)c(N=NC(=O)Cc3cccs3)c2c1 | 35.5 µM [falling, single point] | – |
| Cc1cccc2cc(/C=N/NC(=O)[C@H]3C[C@@H]3c3ccccc3)c(Cl)nc12 | 3.16 µM [falling, single point] | – |
| O=C(NNC(=S)NCc1ccco1)c1ccc(Cl)s1 | 35.5 µM [falling, single point] | – |
| O=C(c1ccccc1)c1ccc2nc[nH]c2c1 | 29.1 µM [falling, single point] | – |
| CCCN(CCC)Cc1cc(=O)oc2cc3c(cc12)CCC3 | 17.8 µM [rising, single point] | – |
| O=C(c1cccnc1)N1N=C(C2CCCCC2)CC1(O)C(F)(F)F (stereo not drawn) | 10 µM [falling, partial curve] | – |
| CCOC(=O)c1c(C)oc2c1c(C(c1cccnc1)N1CCCCC1)c(O)c1ccccc12 (stereo not drawn) | 29.1 µM [falling, single point] | – |
| O/N=C(\c1ccc(Cl)cc1)c1ncc(C(F)(F)F)cc1Cl | 6.51 µM [rising, full curve, poor fit] | – |
| Cc1cccc(NC(=O)CN2CCN(C(=O)c3ccc(-c4nc5ccccc5s4)o3)CC2)c1C | 13 µM [rising, partial curve, poor fit] | – |
| O=C(Cc1cccc2ccccc12)Nc1ccc(OC(F)F)c(Cl)c1 | 8.2 µM [rising, partial curve, poor fit] | – |
| COc1cccc(-c2nc(N3CCCC3)c3ccccc3n2)c1O | 0.562 µM [falling, full curve, poor fit] | – |
| COCCNS(=O)(=O)c1ccc2c(c1)n(C)c(=O)n2C | 0.103 µM [falling, full curve] | – |
| Cc1ccc2nc3n(c(=O)c2c1)-c1cc(Cl)ccc1C(=O)NC3Cc1ccc(O)cc1 (stereo not drawn) | 10.3 µM [rising, partial curve, poor fit] | – |
| O=C1CCN(C(=O)/C=C/c2ccccc2)c2ccccc21 | 12.6 µM [rising, partial curve, poor fit] | – |
| Cc1nc2ccccn2c1C(=O)NNC(=S)Nc1ccc(Cl)cc1 | 8.2 µM [rising, partial curve, poor fit] | – |
| COCc1cc(Sc2ccc(Cl)cc2)nc(C)n1 | 28.2 µM [rising, single point] | – |
| COc1ccccc1N1CCN(C(=O)Cn2nnc(-c3ccncc3)n2)CC1 | 35.5 µM [rising, single point] | – |
| c1ccc(N2CCN(c3ccccc3)C2c2cccs2)cc1 | 14.6 µM [falling, partial curve, poor fit] | – |
| CCOCCCn1c(=NC(=O)c2cccs2)c(C#N)cc2c(=O)n3ccccc3nc21 | 12.6 µM [falling, single point] | – |
| COc1ccc(N(CC(=O)NC2CCCC2)C(=O)Cn2nnc(-c3ccc(OC)c(OC)c3)n2)c(OC)c1 | 0.631 µM [rising, partial curve, poor fit] | 0.631 µM [falling, partial curve, poor fit] |

| Compound | AC50 [1] | AC50 [2] |
| --- | --- | --- |
| Cc1sc(-c2ccccn2)nc1OC(=O)c1ccc(F)cc1F | 8.91 µM [falling, partial curve, poor fit] | – |
| COc1cc(OC)cc(-c2nc3cc(C)ccc3o2)c1 | 1.46 µM [rising, full curve, poor fit] | – |
| CC(C)C1N=C(c2ccc3c(c2)OCO3)CC(c2ccccc2O)N1 (stereo not drawn) | 29.1 µM [falling, single point] | – |
| CCOC(=O)C1=C(C)NC(C)=C(C(=O)OCC)C1/C=C/c1ccccc1 | – | 11.6 µM [falling, partial curve] |
| COc1ccc(C(=O)Nc2ccccc2)cc1NC(=O)c1cccs1 | 1.78 µM [falling, full curve, poor fit] | – |
| CC(C)CC(C(=O)Nc1oc(-c2ccco2)c(-c2ccco2)c1C#N)N1C(=O)c2ccccc2C1=O (stereo not drawn) | 4.47 µM [falling, full curve] | – |
| CC1(c2ccccc2)NC(=S)N2C1NC(=S)N2c1ccccc1 (stereo not drawn) | 3.66 µM [rising, single point] | – |
| O=S(=O)(NCCN1CCOCC1)c1ccc(-c2ccc(S(=O)(=O)NCCN3CCOCC3)cc2)cc1 | 3.16 µM [rising, partial curve, poor fit] | – |
| COC(=O)c1cc(NC(=O)/C=C/c2ccc3c(c2)OCO3)cc(C(=O)OC)c1 | 6.31 µM [falling, single point] | – |
| COc1ccccc1-c1nc(-c2ccc(C)nc2OC)no1 | 20.6 µM [rising, single point] | – |
| CCN(Cc1ccc(OC)c(COC)c1)CC1CCCN(CCc2cccc(OC)c2)C1 (stereo not drawn) | 0.112 µM [rising, full curve, poor fit] | – |
| COCCNC(=S)N/N=C(\C)c1ccc(Cl)c(Cl)c1 | 35.5 µM [falling, single point] | 22.4 µM [falling, single point] |
| CC1CCN(C(=O)c2ccc3c(Cl)c4c(nc3c2)CCCC4)CC1 | 22.4 µM [falling, partial curve] | 12.6 µM [rising, single point] |
| Cc1ccc(NC(=O)c2cc(NC(=O)c3ccccc3C(=O)O)ccc2N2CCCCC2)cc1 | 35.5 µM [falling, single point] | – |
| COc1cccc(C2=NOC(C(=O)NCc3cccs3)C2)c1 (stereo not drawn) | 7.08 µM [falling, partial curve] | – |
| CCOc1ccccc1N/C=C(\C#N)c1nc2ccccc2n1C | 32.6 µM [rising, partial curve, poor fit] | – |
| CCCCn1c(NC(=O)C2CCCCC2)nc2ccccc21 | 6.51 µM [rising, partial curve, poor fit] | – |
| COC(=O)C1(C(=O)OC)Sc2ccccc2C1=O | 4.61 µM [rising, full curve, poor fit] | – |
| C/C(=N\NC(=O)c1ccc(N(C)C)cc1)c1ccc(C)c(C)c1 | 14.6 µM [falling, partial curve, poor fit] | – |
| COc1ccccc1OCCNC(=O)c1cc(C2CC2)nc2c1cnn2C(C)C | 25.9 µM [falling, single point] | – |
